Results taken from the supplement of paper PMC3334620.
Over roughly 33,000 sequences, “E-score (-0.5 to 0.5)” has its median near -8e-05; the highest 2% begin near 0.23. This is one part of the list.

These sequences were tested against T1, Nrg2 (UniProt P38082) (assay: PBM E-score (8-mer binding enrichment) (E-score (-0.5 to 0.5)); higher = stronger / more preferred TF binding). Conditions: protein concentration: 100 nM; construct: GST-full length.
T1 sequence: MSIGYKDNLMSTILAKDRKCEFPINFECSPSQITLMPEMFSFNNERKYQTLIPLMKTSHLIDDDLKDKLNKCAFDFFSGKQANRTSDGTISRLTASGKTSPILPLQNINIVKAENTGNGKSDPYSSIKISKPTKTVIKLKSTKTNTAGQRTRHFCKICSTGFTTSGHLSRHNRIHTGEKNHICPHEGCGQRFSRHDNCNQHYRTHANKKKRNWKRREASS
Procedure, shortened: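 Full-length yeast transcription factors or their DNA-binding domains, GST-tagged and expressed with PURExpress, were applied at about 100-200 nM to universal all-10-mer Agilent arrays. These arrays had been made double-stranded by primer extension on fresh or once-stripped slides. Detection used fluorescent anti-GST, normalisation used masliner, and E-scores for ungapped eight-base words pooled with reverse complements came from the Universal PBM Analysis Suite.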

| Sequence | PBM E-score |
| --- | --- |
| AGCTGCGG | -0.0948 |
| ACAGATCG | 0.0628 |
| AAGCCTAG | -0.148 |
| CTGCACGC | -0.185 |
| AATCCGCG | -0.0302 |
| ATGGCGCA | 0.183 |
| CGATCGAA | 0.0388 |
| ACTATTTA | 0.0789 |
| AGCCGGGG | -0.154 |
| CACATAGC | -0.0258 |
| GAGTAGTA | 0.0848 |
| CCAGTACC | -0.0384 |
| CCTACCCG | -0.0674 |
| AGCTATGC | -0.122 |
| CAATGGCA | 0.165 |
| CATCTGAC | -0.156 |
| CTACTTAC | -0.125 |
| AACTATCC | -0.134 |
| AACAATTA | 0.193 |
| GGTGGGAC | -0.202 |
| GCCGAACC | -0.0531 |
| AATTCTGT | -0.0464 |
| ATTACACC | 0.0197 |
| CTACGCAC | -0.027 |
| CGTTACAC | -0.104 |

| Sequence | PBM E-score |
| --- | --- |
| GCGTTTCA | -0.0291 |
| ACTGAAAG | 0.0423 |
| GGTGTCCA | 0.0507 |
| CCAGCGTA | -0.0444 |
| CCCTTGGA | 0.18 |
| AGATGCAC | -0.0859 |
| CAAAGTCA | 0.0623 |
| CTTGCCGC | -0.182 |
| CTATTCGA | -0.0445 |
| GAAGCTTC | -0.12 |
| GGTTAGCA | -0.0669 |
| CCGAGGTA | 0.00195 |
| GGCATCCA | -0.203 |
| GAATTCAA | 0.192 |
| AAAAATGC | 0.0436 |
| GAACGGAC | -0.231 |
| AAGCATTG | 0.00568 |
| GTGGAGCA | -0.0996 |
| AAGGGTAC | 0.165 |
| AACAAGTG | -0.087 |
| AGGAGATC | 0.0944 |
| AGCCTTAA | 0.0283 |
| AATCTTCA | 0.153 |
| AGGAAGCC | -0.0629 |
| CGACCCAC | -0.0231 |

| Sequence | PBM E-score |
| --- | --- |
| CAGCACTA | 0.0125 |
| GCTCCGAA | 0.107 |
| AGTATTCC | 0.13 |
| GTGTTTGA | 0.162 |
| ACACTGAT | -0.00244 |
| TGTCCACA | 0.0153 |
| TATTTGCA | 0.172 |
| GGAGCCGA | -0.113 |
| CCCAGTTC | 0.124 |
| AAGTATTG | -0.00193 |
| GATCCAGC | -0.0881 |
| AAAGAAAC | 0.0693 |
| ATTCTGGC | 0.0275 |
| AAAAATCC | 0.026 |
| ACGTGAAG | -0.205 |
| ATGAGCAC | -0.108 |
| CAGCGAGA | 0.052 |
| CCACGTAC | -0.143 |
| AGCTATAA | -0.0113 |
| CGGGGAAG | -0.0844 |
| CTTTTTCA | -0.105 |
| AGATATAA | 0.202 |
| ATCGTTCA | -0.013 |
| CCAAGACC | -0.0194 |
| CTAAAGAC | -0.118 |

| Sequence | PBM E-score |
| --- | --- |
| CCCTAAGA | 0.00133 |
| AACCTATT | 0.0161 |
| AGGGAACG | -0.057 |
| ACTGATTG | -0.035 |
| TCAGTGAA | 0.103 |
| ACCTGGCG | -0.306 |
| ATCCACCC | 0.0829 |
| CCATGATC | -0.0843 |
| CAACTGCC | 0.09 |
| GGCCTAAC | 0.0899 |
| GCTAGGGA | -0.047 |
| CTTTGGCC | 0.0181 |
| CGTTTGGA | 0.117 |
| CACTACAC | 0.0145 |
| TAACCGGA | -0.0155 |
| AAGCTGCG | 0.111 |
| CGGGCATA | -0.0878 |
| TCAACCAA | -0.0548 |
| AATGAGAC | -0.141 |
| GTGGTTCA | 0.221 |
| TGATGTAA | 0.0123 |
| ACCTTGAT | 0.183 |
| GAGTAAAC | -0.0581 |
| AGCTCGGG | 0.0409 |
| GTTAGAAC | 0.0227 |

| Sequence | PBM E-score |
| --- | --- |
| ATTACGTA | 0.0311 |
| GCGATGTA | 0.0197 |
| AATCAGTA | 0.0698 |
| AATGCTTC | 0.0333 |
| AGTCTGTG | -0.167 |
| ACCTCTGC | -0.132 |
| GGACGTGA | -0.144 |
| AGTACCAG | 0.0651 |
| AGCATTCC | -0.0069 |
| CAAACCTA | 0.0175 |
| CAACATAG | 0.0555 |
| CTTTTTTA | -0.0708 |
| TTACCGAA | 0.146 |
| ACCTACTA | -0.121 |
| CTATCACA | 0.0988 |
| GCTTACCA | 0.0539 |
| ACTGTGAG | 0.0562 |
| ATAGGATC | -0.0324 |
| ATTATGCG | 0.266 |
| TGATATCA | 0.0655 |
| GCGAACAA | 0.322 |
| ACTGGCCC | 0.0932 |
| AATGTGGG | 0.0782 |
| CCGGGGTA | -0.145 |
| CCAGGGGG | -0.186 |

| Sequence | PBM E-score |
| --- | --- |
| AACAGGGC | 0.283 |
| AAGAGACA | 0.215 |
| ACCGCCCA | -0.254 |
| GCGTCTCA | -0.195 |
| CCACGGCC | -0.172 |
| AACCAAAG | -0.0122 |
| CTCAAATC | -0.0972 |
| GAACTCTA | 0.0626 |
| CGTTGGGC | -0.0257 |
| GGAGCGAC | -0.0839 |
| AGGCTGAT | -0.138 |
| GCTCCCCC | -0.392 |
| CCAAAAAA | 0.18 |
| ACCACATA | 0.00668 |
| GTGATCTA | 0.193 |
| CATACGTA | 0.0697 |
| ACGCATCG | -0.187 |
| CTCTTTAA | -0.0133 |
| ATAACTCA | 0.119 |
| GAACGTAC | -0.102 |
| TCAATTAA | 0.0617 |
| GGGCATAA | 0.109 |
| ACTCTTGA | -0.196 |
| AGGGTAAG | 0.0808 |
| AGATGAAT | -0.0467 |

Look-ups from above.
PBM E-score with GAACGTAC reads -0.102
PBM E-score with ACCGCCCA reads -0.254
PBM E-score with GTGATCTA reads 0.193
PBM E-score with AACAGGGC reads 0.283
PBM E-score with AGGCTGAT reads -0.138

Pulled one by one from the list above, two records:

| Sequence | PBM E-score |
| --- | --- |
| CACTACAC | 0.0145 |
| AAAAATCC | 0.026 |

Remaining list, next part

| Sequence | PBM E-score |
| --- | --- |
| TAAACGCA | -0.0522 |
| CCGGACTA | -0.105 |
| TCCCACGA | 0.091 |
| GCTAGGTA | -0.0549 |
| AGGCTTAC | -0.137 |
| AAAAACGT | -0.154 |
| CGGCATAC | -0.0738 |
| AAGTTGTG | 0.107 |
| CACACGAC | -0.0301 |
| AACAAATA | 0.247 |
| ATTACACG | 0.00432 |
| GGTGTCAA | 0.0264 |
| GAACTTCA | -0.00682 |
| GAGATAGC | 0.0185 |
| AGTGCCGA | 0.0305 |
| CCCGCTAG | 0.0237 |
| CAGAGTTC | 0.0203 |
| CGCCTCAC | -0.0792 |
| GCTAAAAC | -0.00797 |
| TAGCGTAA | 0.0151 |
| AGGACGGG | -0.311 |
| CCTGACGA | 0.204 |
